The values below are quoted from earlier work in US9550775B2, “Substituted triazolopyridines and methods of use thereof” (GENENTECH, INC., priority 2013, dated 2017).

The conditions of the data set: administered topically (Lidoderm patch); cited from earlier work.

Take `CCN(CC)CC(=O)Nc1c(C)cccc1C` [lidocaine]: the plasma concentrations result is given as “about 1 μM”.
